Source: paper PMC8369502, “High-Throughput Drug Screening System Based on Human Induced Pluripotent Stem Cell-Derived Atrial Myocytes ∼ A Novel Platform to Detect Cardiac Toxicity for Atrial Arrhythmias” (Frontiers in Pharmacology, 2021)

Columns and labels:
[1] = tested on: CT (control hiPS-CMs without RA, ventricular-like); experiment: High-throughput membrane potential recording (FluoVolt, FDSS/μCell) in CT; type: cell-based, human
Protocol: (§1) Using a high-throughput screening system (FDSS/μCell), we assessed the drug toxicity of several experimental drugs on hiPS-derived atrial myocytes as well as control hiPS-derived cardiomyocytes. Membrane potential was used as one of the parameters during the assessment.
(§2) After purification, hiPS-derived cardiomyocytes were plated in 96-well plates for downstream drug response assessment using FluoVolt™ Membrane Potential Kit. […] The comparison of variance in the response of drug administration in CT and AM was represented by the percentage of changes based on their baseline values respectively.
(§3) FluoVolt™ Membrane Potential Kit (ThermoFisher […], F10488, Massachusetts, United States) was used to measure membrane potentials. The basic procedure was performed in accordance with the manufacturer’s instructions. […] MP were recorded at excitation and emission stages at wavelengths of 470 and 540 nm, respectively. […] Stock solutions of the test compounds were prepared in 100% DMSO, and serially diluted 1/40 into compound plates for testing (0.5% DMSO was the maximum concentration in all wells). The compounds were automatically pipetted from the compound plate, and 12 μL was loaded in the wells already containing the cells with 48 μL of media. Recording data were analyzed using Waveform Analysis of Cardiomyocyte Software (Ver.1.2.1J, Hamamatsu Photonics K.K.). Data values for a well were averaged from waveforms that arose during 30 s. The beat rate (BR; beats per minute), waveform amplitude (AMP), and duration at 30, 50, and 80% of decay (PWD30, PWD 50, and PWD 80, respectively) were used as evaluation parameters. PWDs were corrected using the Fridericia formula. PWD30-80 was calculated as the difference between PWD80 and PWD30. Each parameter was calculated as percentage change (%) from the value before test compound addition.

[2] = tested on: AM (RA-treated hiPS-CMs, atrial-like); experiment: High-throughput membrane potential recording (FluoVolt, FDSS/μCell) in AM; type: cell-based, human
Protocol: as §1, §2, §3

[3] = CT, % change from value before compound addition, 10 min after addition (Bay K 8644: 3 min)
[4] = CT, concentration range as stated in the source
[5] = AM, % change from value before compound addition, 10 min after addition (Bay K 8644: 3 min)
[6] = AM, concentration range as stated in the source

EAD (count printed in the figure) ([1]; human, 10 min): 2/6 | arrest (count printed in the figure) ([1]; human, 10 min): 4/6 | concentration at which cessation of beating was elicited ([1]; human, 10 min): higher than 30 μM | EAD observed (cases) ([1]; human, 10 min, 10 μM): 2 of 6 | cessation of beating / arrest (cases) ([1]; human, 10 min, 10 μM): 4 | arrest (count printed in the figure) ([2]; human, 10 min): 6/6 | concentration at which cessation of beating was elicited ([2]; human, 10 min): higher than 30 μM
SMILES: COc1cc2c(cc1OC)C(=O)C(CC1CCN(Cc3ccccc3)CC1)C2 (stereo not shown) [Donepezil]
PWD30-80 (in words) ([1]; CT): prolonged | PWD80cF (in words) ([1]; CT): prolonged | Falling Slope [1, 3]: ↓ | PWD80cF [1, 3]: ↑ | Rising Slope [1, 3]: ↓ | beating rate (in words) [1, 4]: dose-dependent decrease | falling slope of membrane potential (in words) [1, 4]: dose-dependent decrease | rising slope of membrane potential (in words) [1, 4]: dose-dependent decrease | incidence of arrhythmia-like waveforms: EAD ([1]; human, 10 min, 10 μM): 33% | incidence of arrhythmia-like waveforms: arrest ([1]; human, 10 min, 10 μM): 67% | PWD30-80 (in words) ([2]; AM): prolonged | PWD80cF (in words) ([2]; AM): prolonged | Beat Rate [2, 5]: ↓ | Falling Slope [2, 5]: ↓ | PWD30cF [2, 5]: ↑ | PWD80cF [2, 5]: ↑ | Rising Slope [2, 5]: ↓ | beating rate (in words) [2, 6]: dose-dependent decrease | falling slope of membrane potential (in words) [2, 6]: dose-dependent decrease | rising slope of membrane potential (in words) [2, 6]: dose-dependent decrease | incidence of arrhythmia-like waveforms: arrest ([2]; human, 10 min, 10 μM): 100%
